In the supplement of paper PMC10331698:
± gives the standard deviation of the averaged measurements. Small differences around the control level are noise.

Legend:
Experiment in all cases: level (log10 ratio to DMSO vehicle control); higher = higher biomarker level / cell amount than vehicle control
[1] = compound: OCC(F)(F)C(F)(F)C(F)(F)C(F)(F)C(F)(F)C(F)F [1H,1H,7H-Dodecafluoro-1-heptanol]; details: 2200 nM; in DMSO
Experimental: (§1)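 BioMAP Diversity Plus panel of 12 human primary cell co-culture systems (3C, 4H, LPS, SAg, BT, BF4T, BE3C, CASM3C, HDF3CGF, KF3CT, MyoF, Mphg). Compounds were added 1 h before stimulation and left for 24 h (MyoF 48 h; BT 72 h for soluble read-outs or 6 d for IgG). Biomarkers were read by ELISA, cytotoxicity by SRB, PBMC viability and proliferation by Alamar Blue. Each well value was divided by the mean of 8 DMSO control wells on the same plate and log10 transformed; duplicate blinded samples were tested at 4 concentrations.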

[2] = compound: NC(=O)C(F)(F)C(F)(F)C(F)(F)C(F)F; details: in DMSO
Experimental: as §1

[3] = compound: O=P(O)(O)CCC(F)(F)C(F)(F)C(F)(F)C(F)(F)C(F)(F)C(F)(F)F [2-(Perfluorohexyl)ethylphosphonic acid]; details: 2200 nM; in DMSO
Experimental: as §1

[4] = compound: NC(=O)C(F)(F)C(F)(F)F [Pentafluoropropionamide]; details: 2200 nM; in DMSO
Experimental: as §1

[5] = compound: O=S(=O)(O)C(F)(F)C(F)(F)C(F)(F)C(F)(F)C(F)(F)C(F)(F)C(F)(F)C(F)(F)F [Potassium perfluorooctanesulfonate]; details: 2200 nM; in DMSO
Experimental: as §1

[6] = compound: O=S(=O)(O)C(F)(F)C(F)(F)C(F)(F)C(F)(F)C(F)(F)C(F)(F)C(F)(F)C(F)(F)F [Perfluorooctanesulfonic acid]; details: 2200 nM; in DMSO
Experimental: as §1

[7] = compound: CO[Si](C)(CCC(F)(F)C(F)(F)C(F)(F)C(F)(F)C(F)(F)C(F)(F)F)OC [Dimethoxymethyl((perfluorohexyl)ethyl)silane]; details: in DMSO
Experimental: as §1

[8] = compound: C=CC(=O)OCC(F)(F)C(F)(F)C(F)(F)C(F)(F)C(F)(F)C(F)(F)C(F)(F)F [1H,1H-Perfluorooctyl acrylate]; details: 2200 nM; in DMSO
Experimental: as §1

[9] = compound: COC(=O)C(F)(F)C(F)(F)OC(F)(C(F)(F)F)C(F)(F)OC(F)=C(F)F [Methyl perfluoro(3-(1-ethenyloxypropan-2-yloxy)propanoate)]; details: in DMSO
Experimental: as §1

[10] = compound: FC(F)(F)C(F)(F)C(F)(F)CI [Heptafluorobutyl iodide]; details: 2200 nM; in DMSO
Experimental: as §1

[11] = compound: C=C(C)C(=O)OCC(F)(F)C(F)(F)C(F)(F)C(F)(F)C(F)(F)C(F)(F)C(F)(F)F; details: in DMSO
Experimental: as §1

[12] = compound: O=C(O)C(F)(F)C(F)(F)C(F)F [4H-Perfluorobutanoic acid]; details: in DMSO
Experimental: as §1

[13] = compound: FC(F)(F)C(F)(F)C(F)(F)CC1CO1 [1H,1H-Heptafluorobutyl epoxide]; details: 2200 nM; in DMSO
Experimental: as §1

[14] = compound: NS(=O)(=O)C(F)(F)C(F)(F)C(F)(F)C(F)(F)C(F)(F)C(F)(F)C(F)(F)C(F)(F)F [Perfluorooctanesulfonamide]; details: in DMSO
Experimental: as §1

[15] = compound: OCCCCC(F)(F)C(F)(F)C(F)(F)C(F)(F)F [4:4 Fluorotelomer alcohol]; details: 2200 nM; in DMSO
Experimental: as §1

[16] = compound: O=S(=O)(F)C(F)(F)C(F)(F)C(F)(F)C(F)(F)C(F)(F)C(F)(F)C(F)(F)C(F)(F)F [Perfluorooctanesulfonyl fluoride]; details: 2200 nM; in DMSO
Experimental: as §1

[17] = compound: C=CC(F)(F)C(F)(F)C(F)(F)C(F)(F)C(F)(F)C(F)(F)C(F)(F)C(F)(F)C=C [1,8-Divinylperfluorooctane]; details: in DMSO
Experimental: as §1

[18] = compound: O=S(=O)(OCC(F)(F)F)C(F)(F)C(F)(F)C(F)(F)C(F)(F)F [2,2,2-Trifluoroethyl perfluorobutanesulfonate]; details: 2200 nM; in DMSO
Experimental: as §1

| Test System | level (log10) [1] | level (log10) ([2]; 2200 nM) | level (log10) ([2]; 6700 nM) | level (log10) ([2]; 20000 nM) | level (log10) ([2]; 60000 nM) | level (log10) [3] | level (log10) [4] | level (log10) [5] | level (log10) [6] | level (log10) ([7]; 740 nM) | level (log10) ([7]; 2200 nM) | level (log10) [8] | level (log10) ([9]; 740 nM) | level (log10) ([9]; 2200 nM) | level (log10) [10] | level (log10) ([11]; 740 nM) | level (log10) ([11]; 2200 nM) | level (log10) ([12]; 2200 nM) | level (log10) ([12]; 6700 nM) | level (log10) ([12]; 20000 nM) | level (log10) ([12]; 60000 nM) | level (log10) [13] | level (log10) ([14]; 2200 nM) | level (log10) ([14]; 6700 nM) | level (log10) ([14]; 20000 nM) | level (log10) [15] | level (log10) [16] | level (log10) ([17]; 740 nM) | level (log10) ([17]; 2200 nM) | level (log10) [18] |
| --- | --- | --- | --- | --- | --- | --- | --- | --- | --- | --- | --- | --- | --- | --- | --- | --- | --- | --- | --- | --- | --- | --- | --- | --- | --- | --- | --- | --- | --- | --- |
| BF4T:IL-1alpha | 0.0095 ± 0.022 | 0.0165 ± 0.018 | -0.0175 ± 0.021 | -0.004 ± 0.0028 | -0.002 ± 0.0057 | 0.01 ± 0.011 | 0.0045 ± 0.021 | 0.0155 ± 0.013 | -0.0085 ± 0.0092 | 0.0045 ± 0.028 | -0.0185 ± 0.0021 | 0.004 | 0.0005 ± 0.0035 | -0.0085 ± 0.005 | 0.0185 ± 0.023 | 0.0175 ± 0.035 | -0.002 ± 0.0057 | -0.012 ± 0.0014 | -0.02 ± 0.0014 | -0.019 ± 0.014 | 0.0085 ± 0.012 | 0.0155 ± 0.00071 | 0.0275 ± 0.033 | 0.0095 ± 0.012 | -0.0455 ± 0.022 | 0.0075 ± 0.022 | 0.003 ± 0.014 | 0.0035 ± 0.042 | -0.013 ± 0.0014 | 0.0025 ± 0.012 |
| CASM3C:HLA-DR | 0.017 ± 0.0071 | -0.007 ± 0.021 | -0.0125 ± 0.042 | -0.0075 ± 0.016 | -0.008 ± 0.0014 | -0.002 ± 0.064 | 0.008 | 0.0055 ± 0.081 | 0.0115 ± 0.08 | -0.023 ± 0.021 | -0.014 ± 0.018 | 0.0095 ± 0.019 | 0.0025 ± 0.005 | 0.0055 ± 0.0021 | -0.01 ± 0.021 | 0.009 ± 0.02 | -0.0065 ± 0.00071 | 0.02 ± 0.051 | -0.007 ± 0.0028 | 0.0435 ± 0.033 | 0.006 ± 0.024 | -0.0045 ± 0.026 | -0.006 ± 0.02 | -0.0045 ± 0.012 | -0.004 ± 0.0085 | 0.032 ± 0.095 | 0.013 ± 0.013 | -0.0165 ± 0.00071 | -0.0075 ± 0.012 | 0.0005 ± 0.039 |
| CASM3C:IL-6 | 0.0275 ± 0.049 | 0 ± 0.041 | -0.0315 ± 0.0064 | -0.0165 ± 0.012 | 0.017 ± 0.05 | 0 ± 0.033 | 0.0225 ± 0.054 | 0.047 ± 0.067 | 0.0175 ± 0.052 | 0.007 ± 0.035 | -0.007 ± 0.0085 | -0.015 ± 0.059 | 0.0145 ± 0.029 | -0.0065 ± 0.042 | 0.006 ± 0.044 | 0.0135 ± 0.043 | -0.0105 ± 0.032 | 0.0175 ± 0.022 | -0.0125 ± 0.0035 | 0.0045 ± 0.023 | 0.0225 ± 0.021 | 0.0035 ± 0.054 | 0.0085 ± 0.025 | -0.0275 ± 0.018 | -0.023 ± 0.014 | 0.0475 ± 0.047 | 0.0005 ± 0.019 | 0.0095 ± 0.035 | -0.021 ± 0.0057 | 0 ± 0.052 |
| 4H:CCL2/MCP-1 | -0.0015 ± 0.057 | -0.004 ± 0.088 | -0.0155 ± 0.032 | -0.039 ± 0.031 | 0.029 ± 0.04 | -0.0015 ± 0.061 | 0.0285 ± 0.043 | 0.033 ± 0.061 | 0.0115 ± 0.066 | 0.011 ± 0.062 | -0.046 ± 0.0014 | -0.0025 ± 0.021 | 0.0275 ± 0.049 | 0.0105 ± 0.0035 | -0.01 ± 0.02 | 0.0275 ± 0.069 | -0.0305 ± 0.018 | -0.0065 ± 0.05 | -0.066 ± 0.047 | -0.0555 ± 0.029 | -0.0005 ± 0.028 | -0.0115 ± 0.066 | -0.035 ± 0.11 | -0.093 ± 0.023 | -0.124 ± 0.0021 | 0.0205 ± 0.025 | 0.0115 ± 0.028 | 0.0225 ± 0.042 | -0.0095 ± 0.019 | -0.02 ± 0.023 |
